Reference: the supplement of paper PMC5949888
Most values lie at the floor of the assay. Slopes are relative: functional sequences can read slightly below zero.

tested on: Saccharomyces cerevisiae PS128 hsf1 delta, HSF1(1-493) fusion; experiment: growth estimate (transactivation domain function in HSF1 fusion, heat-shock survival) (a.u. (slope of normalised read count over time)); higher = stronger growth at 37°C, i.e. more transactivation activity; details: library: random library

Row | Substance | growth estimate
1 | LLTCR | < -0.25
2 | RCRGKRSMELSEGDSLSKDV | < -0.25
3 | SGCMTVAPEESASWYSSKSN | < -0.25
4 | YILVASVA | < -0.25
5 | LGTRVVD | < -0.25
6 | KFIITSAWALHK | < -0.25
7 | SSVTPEQWKRR | < -0.25
8 | LQIYANPLICLFHPNSVRRC | < -0.25
9 | RMIVYGRGWSEVESMVNAYV | < -0.25
10 | SQIGSVIR | < -0.25
11 | ARASDGLCLFQGIWGLFTAA | < -0.25
12 | SNERFSEGRMCFCVAEAHRF | < -0.25
13 | SISVRRGVA | < -0.25
14 | RRAYVGLPGLTVSSSSKRIH | -0.231
15 | RIGSLREGPSRSDDCDRDAQ | < -0.25
16 | VLD | < -0.25
17 | VVSSNVRPRDGLRGFQECR | < -0.25
18 | RTCRDYPSWVRDNCLVISHR | < -0.25
19 | FRVGELDPSRHSPGPRWRCS | < -0.25
20 | GVPCFDRTCSGT | < -0.25
21 | IRLRHIESRCEGTGQ | -0.248
22 | MPRGLAK | < -0.25
23 | VRK | < -0.25
24 | RLRLRKPTGRRRGLTRPSSG | < -0.25
25 | YVPFHGCLC | < -0.25
26 | LIG | < -0.25

Row | Substance | growth estimate
27 | VYQGGA | < -0.25
28 | PNG | < -0.25
29 | GSVRLRYTLMERSVLKGLGG | < -0.25
30 | SPGK | < -0.25
31 | KCKQGEGGSRFFWTVTESGE | < -0.25
32 | LPIVSLPCRLPTLGYKSISA | < -0.25
33 | TWSVEQRVCLFSADRYSAYS | < -0.25
34 | TCVAA | < -0.25
35 | PPMVLGIGTAYHDLGCFDDE | < -0.25
36 | WVSG | -0.231
37 | PWTPQSYLRPMNKDVRSRSQ | < -0.25
38 | TAKLHAGWSLFTVQVAAAAQ | < -0.25
39 | LAGLTLDGT | < -0.25
40 | IFCFVPQCGEDTMFLVSCFE | < -0.25
41 | GIVAWSEKCSNSPPANTQER | < -0.25
42 | GARF | < -0.25
43 | FVPL | < -0.25
44 | VHKYDGTRIW | < -0.25
45 | VCFKGDDLSARWGD | < -0.25
46 | HTDGSTVFAKNTGQSTG | < -0.25
47 | HFEMDAS | < -0.25
48 | ISGGGPKAPVAVNNGIVPFI | < -0.25
49 | RGDKTLYDCPQPLSLWSQYT | < -0.25
50 | YQVGCQKYVTYLWVGSTSGG | < -0.25
51 | HRCFSP | < -0.25
52 | LVIDHTYAGLTLESDSCMKH | < -0.25

Row | Substance | growth estimate
53 | VCNDHVA | < -0.25
54 | ESHSFTLDR | < -0.25
55 | SRRVGLRIPLWRGAK | < -0.25
56 | CLPF | < -0.25
57 | GWFGTNP | < -0.25
58 | VGVLSPCQTPLYRGWKTHHR | < -0.25
59 | LTGCLPKPLFRLRVTAEQTT | < -0.25
60 | VLYLVRLELTRCPVSPHNRA | < -0.25
61 | IHPAHRPS | < -0.25
62 | CDTSATQGGRLRLWGTVWAP | < -0.25
63 | ARGCGASVRRAAKGQMSVIA | < -0.25
64 | IRPASLARLRGGTRSSSTSA | < -0.25
65 | MIWAIIVNAASS | < -0.25
66 | STSGPGGWRAITKRGMHRSQ | < -0.25
67 | CCLGLNFRQWNVGCFQDIFV | < -0.25
68 | VATAQ | < -0.25
69 | GGLRRATRPRPSLNGRSVTK | < -0.25
70 | TRFGFFGYPYQLE | 0.0108
71 | LSVVAISTSTLMFGTRLGVF | < -0.25
72 | GCGVGDQSLESSIRTVIG | < -0.25
73 | GARFGAAFRAFMAGGE | < -0.25
74 | GIEW | < -0.25
75 | PVDF | < -0.25
76 | VGGRFVFSRSNSFGLDGGEM | < -0.25
77 | SPRDYPGR | < -0.25
78 | RPGKKLGNCAAGRGCHAAWM | < -0.25

Row | Substance | growth estimate
79 | YGNFCLWREHMQTGLLEYL | < -0.25
80 | LCLQDHMIDEDQGGAGNASN | < -0.25
81 | WGGYPPILCTSIGWCLAFFA | < -0.25
82 | GPSHINWGLSLRGGRTVLSL | < -0.25
83 | ASV | < -0.25
84 | TSIRRHHPP | < -0.25
85 | IATGVNLHLSAGTAVLVLLS | < -0.25
86 | SSGVVKVLLGFSGRPELLSQ | < -0.25
87 | RWQDP | < -0.25
88 | RRTPRVQSWSLDSVSSYAVE | < -0.25
89 | GDWTL | < -0.25
90 | TNVSSEGLRYHVVTVGRPGF | < -0.25
91 | KRLLQKGGG | < -0.25
92 | GGGRRRLSLLLSQYSSNKYP | < -0.25
93 | LDS | < -0.25
94 | GWYRGGESWGTHRN | < -0.25
95 | ELDICCR | < -0.25
96 | NNLRENAADVRPVVGVRLSA | -0.243
97 | QGPTPAWTVGPQRTCWPANA | < -0.25
98 | DGVWRNMFTGVISRVISSAG | < -0.25
99 | ELVGISAR | < -0.25
100 | LSPGHWILPLQIGRCNGIFD | < -0.25
101 | CTER | < -0.25
102 | GIRHFGGTVYVRCMS | < -0.25
103 | RTRIQYRPGMGAFDVNSLG | < -0.25
104 | PTISRGDAHSSLKRISD | < -0.25

Pulled one by one from the list above, three records:
Row | Substance | growth estimate
79 | YGNFCLWREHMQTGLLEYL | < -0.25
84 | TSIRRHHPP | < -0.25
80 | LCLQDHMIDEDQGGAGNASN | < -0.25

Later entries.

Row | Substance | growth estimate
105 | DHYAGVR | < -0.25
106 | GFNTMQGRSLIESDRGNMAD | < -0.25
107 | ESTEKSRERVGGDVRSRVAR | < -0.25
108 | SKSRMIRRLRDSG | < -0.25
109 | CQDVERVARPGNRHYWAWLA | < -0.25
110 | GMRGTKRSL | < -0.25
111 | SCSQLD | < -0.253
112 | ANQSSPTAWSICGVRSPRLR | < -0.25
113 | TCGWA | < -0.25
114 | GKGDLVGL | < -0.25
115 | PRCSLFSR | < -0.25
116 | LILLGPND | < -0.25
117 | RVLCLARRAQYHSVLDCFAF | < -0.25
118 | NQTAAGYMRPTSSGGIAI | < -0.25
119 | ELLMVERSDIWRALF | < -0.25
120 | QIVLSGVNVPSVPNPGRTPN | < -0.25
121 | GTPTVSKVPGRCSVLQRLLR | < -0.25
122 | TSCRVYWHKA | < -0.25
123 | RALYRRNYITPRL | < -0.25
124 | CLSGPVVLRRCIVYRFI | < -0.25
125 | VRDHWIRSF | < -0.25
126 | PADYRAPMLASQSNELLLDG | < -0.25
127 | SQRVEGVAMLVSGYPSGLFS | < -0.25
128 | IGKNLKWG | < -0.25
129 | WGARQGDLRDI | < -0.25
130 | RLIVMDCLRKSFTVGRVGEA | < -0.25

Row | Substance | growth estimate
131 | RRVCTVWHQCWARLAWFPIT | < -0.25
132 | EVCSVANRKGSQNGWF | < -0.25
133 | SMVSAFCSVGAKVEGVGGEV | < -0.25
134 | TGKSTLV | < -0.25
135 | PRRNRPTRLPQLSRPSRTRA | < -0.25
136 | QNVRGLLDRRLLEVRFGYCL | 0.356
137 | TVGCGSLFGQRFGV | < -0.25
138 | GLMHGS | < -0.25
139 | INQSRPNRVKPRTATDSHVC | < -0.25
140 | LGK | < -0.25
141 | SVTRGTHVVISQVARMACRR | < -0.25
142 | SIS | < -0.25
143 | FVRFFCSQSRETAVND | < -0.25
144 | YRRGRGPAENRQIAPEQVGF | < -0.25
145 | RNAERSTPVLDDTAEVTGQG | < -0.25
146 | VCQCAVSVGGLMQFAASGSG | < -0.25
147 | RRTDRV | < -0.25
148 | TRATGG | < -0.25
149 | SCTRRGHLRPLGWILTDLPV | < -0.25
150 | MSIVLMRYVKVHASFPRRRC | < -0.25
151 | FHTPPRLAIKFFVSAS | -0.0804
152 | FCSWLIGACERLTNGGSRPG | < -0.25
153 | KCFLQVGSRLAAPGER | < -0.25
154 | SLNLVTP | < -0.25
155 | ATVSPPLIVSWRVANLLERP | < -0.25
156 | RGFSGSCITAHLHGLYVLNA | < -0.25

Row | Substance | growth estimate
157 | KEPHHGKICARNWPTVHSKY | < -0.25
158 | STRITPWIAGANIDPLEGLE | < -0.25
159 | ICMKDRGALIRLFLSEAAPG | < -0.25
160 | RVRHFWR | < -0.25
161 | EGQMSS | < -0.25
162 | VLRPGDVRDNL | < -0.25
163 | RGMAEQRLVSMGRNMNSTRY | < -0.25
164 | LNKAVRVLPAYLGGPPRTVA | < -0.25
165 | RLLRMMVNVGPKWSLSSDAA | < -0.25
166 | TTVSVWEIPFAMVSKEEEAL | < -0.25
167 | ASLAAGISACPVVYAVRETI | -0.245
168 | GQCVGE | < -0.25
169 | PCF | < -0.25
170 | CRNRLTRLTGVQTIGITAVG | < -0.25
171 | MMEGLRYNADY | < -0.25
172 | RCTRLRGLVAVVCLGVA | < -0.25
173 | VNLVDRFKYTDLKSALRIQY | -0.208
174 | SSAQVISPIYNW | < -0.25
175 | LVKPCQCRRHPGRTYWCRHR | < -0.25
176 | RESVLFD | < -0.25
177 | VGDTDLGLSVR | < -0.25
178 | AVAP | < -0.25
179 | NARCS | < -0.25
180 | IANDRQIGLSG | < -0.25
181 | PFRRSMNRNGWRVCCLGNKS | -0.243
182 | RALLSHYVSAMPLYLVKLRR | < -0.25

Row | Substance | growth estimate
183 | GMYRLPDSTRALNLAAL | < -0.25
184 | NLDNGKFRSVAGEMCVGSRL | < -0.25
185 | NLD | < -0.25
186 | IRPGLDGLVVWQGSQRLDEL | < -0.25
187 | GQWLCLLAWGGPDRSPGNWL | < -0.25
188 | NVPSLGEN | < -0.25
189 | IYVVWGSHNQVS | -0.246
190 | YIRERRGGSLPRWTNTTSRF | < -0.25
191 | GGKHSA | < -0.25
192 | CAVGQ | < -0.25
193 | IVQLEYSAPVHQRLGRGGKP | < -0.25
194 | ANVGYSWGEAGVTVG | < -0.25
195 | SDPFSVRSMQKRR | < -0.25
196 | IRIEGSYRGTGST | < -0.25
197 | LPKGDRLDRRAGFGNSFHRP | < -0.25
198 | AIAKEDWHINLLGQKIFAWF | < -0.25
199 | QITGLHTEGTAWRLEVEFGR | < -0.25
200 | VQLSENLNLEIRTAGE | < -0.25
201 | PVGTMGGDYGTHIR | < -0.25

Rewritten as tab-separated lines: part of the list above
Row	Substance	growth estimate
156	RGFSGSCITAHLHGLYVLNA	< -0.25
157	KEPHHGKICARNWPTVHSKY	< -0.25
158	STRITPWIAGANIDPLEGLE	< -0.25
160	RVRHFWR	< -0.25
161	EGQMSS	< -0.25
162	VLRPGDVRDNL	< -0.25
163	RGMAEQRLVSMGRNMNSTRY	< -0.25
164	LNKAVRVLPAYLGGPPRTVA	< -0.25
165	RLLRMMVNVGPKWSLSSDAA	< -0.25
167	ASLAAGISACPVVYAVRETI	-0.245
168	GQCVGE	< -0.25
170	CRNRLTRLTGVQTIGITAVG	< -0.25
171	MMEGLRYNADY	< -0.25
172	RCTRLRGLVAVVCLGVA	< -0.25
173	VNLVDRFKYTDLKSALRIQY	-0.208
174	SSAQVISPIYNW	< -0.25
175	LVKPCQCRRHPGRTYWCRHR	< -0.25
176	RESVLFD	< -0.25
177	VGDTDLGLSVR	< -0.25
178	AVAP	< -0.25
179	NARCS	< -0.25
180	IANDRQIGLSG	< -0.25
181	PFRRSMNRNGWRVCCLGNKS	-0.243
182	RALLSHYVSAMPLYLVKLRR	< -0.25
183	GMYRLPDSTRALNLAAL	< -0.25
184	NLDNGKFRSVAGEMCVGSRL	< -0.25
185	NLD	< -0.25
186	IRPGLDGLVVWQGSQRLDEL	< -0.25
187	GQWLCLLAWGGPDRSPGNWL	< -0.25
188	NVPSLGEN	< -0.25
189	IYVVWGSHNQVS	-0.246
190	YIRERRGGSLPRWTNTTSRF	< -0.25
191	GGKHSA	< -0.25
192	CAVGQ	< -0.25
193	IVQLEYSAPVHQRLGRGGKP	< -0.25
194	ANVGYSWGEAGVTVG	< -0.25
195	SDPFSVRSMQKRR	< -0.25
196	IRIEGSYRGTGST	< -0.25
197	LPKGDRLDRRAGFGNSFHRP	< -0.25
198	AIAKEDWHINLLGQKIFAWF	< -0.25
199	QITGLHTEGTAWRLEVEFGR	< -0.25
200	VQLSENLNLEIRTAGE	< -0.25
201	PVGTMGGDYGTHIR	< -0.25
